Test results as given in PubChem BioAssay AID2241 (Broad Institute, 2010).
Out of some 21,000 compounds screened, about 110 (0.52%) were called active. The shares of active, inactive and inconclusive entries below differ from those in the screen.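 How the source made its calls: active means most replicate scores above 10, or exactly half above 10 with mean activity above 10; inconclusive means mean activity below 10 while half the replicates exceed 10; inactive means most replicate scores below 10.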

Test: inducers of caspase activity in MEF A1-2A-BIM cells, primary screen, A1 inhibitor project, cell-based, CaspaseGlo luminescence (AID 2241);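 further: effector caspase 3 and 7 activity cleaving a DEVD luciferin substrate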
Conditions: caspase-Glo luminescence, 3 h, hits give high values, percent of clofoctol signal, DMSO as zero, concentration not given here

| SMILES | caspase activation |
| --- | --- |
| CC12CCC(c3c1nn(-c1ccccc1)c3C(F)(F)F)C2(C)C (centres undefined) | inconclusive: 9.11% |
| CCCn1c(=S)[nH]c2cc(C(=O)NCc3ccccc3)ccc2c1=O | inactive: -0.348% |
| CN(Cc1ccccc1)S(=O)(=O)c1ccc(C(=O)Nc2ccc(-c3nc4ccccc4[nH]3)cc2)cc1 | active: 21.8% |
| COc1ccc2cc(C3CC(c4ccc(OC)c(OC)c4)=NN3C(=O)c3ccco3)c(Cl)nc2c1 (centres undefined) | inconclusive: 7.82% |
| CSc1nc2ccccc2c(=O)n1C1CCCCC1 | inconclusive: 7.85% |
| COc1ccccc1CC(=O)Nc1ccc(-c2nc3ccccc3[nH]2)cc1 | active: 28.6% |
| Cc1cccn2c(=O)c3cc(C(=O)NCCN4CCOCC4)c(=N)n(C(C)C)c3nc12 | inactive: -0.435% |
| C=C(C)[C@@H]1CC[C@]2(C(=O)O)CC[C@]3(C)[C@H](CC[C@@H]4[C@@]5(C)CC[C@H](O)C(C)(C)[C@@H]5CC[C@]43C)[C@@H]12 | inconclusive: 7.98% |
| C=CCn1c(=S)sc2c(Sc3nnc(-c4ccco4)o3)ncnc21 | inconclusive: 8.01% |
| COc1ccc(OC)c(NS(=O)(=O)c2ccccc2)c1 | inactive: -0.496% |
| C[C@@H]1CN([C@H](C)CO)C(=O)c2cc(NS(=O)(=O)c3cn(C)cn3)ccc2O[C@@H]1CN(C)CC1CCCCC1 | inactive: -0.273% |
| COc1ccc(C2=Nc3ccccc3SC(c3ccccc3)C2)cc1 (centres undefined) | inactive: -1.16% |
| C[C@H](CO)N1C[C@H](C)[C@H](CN(C)C(=O)Nc2cccc3ccccc23)Oc2ccc(NC(=O)c3ccncc3)cc2C1=O | inactive: 0.207% |
| CC(C)(C)n1nc(-c2ccc(Cl)cc2)c2c(N)ncnc21 | active: 12.9% |
| COc1ccc2[nH]c3c(=O)n(CC(=O)N(C)Cc4ccccc4)c(=S)[nH]c3c2c1 | inconclusive: 7.46% |
| Cc1cccc(CN2CCC(CNC(=O)c3cc4c(=O)[nH]c5ccc(C)cc5c4s3)CC2)c1 | inconclusive: 8.85% |
| CC(C)NC(=O)Nc1ccc2c(c1)C(=O)N([C@@H](C)CO)C[C@H](C)[C@H](CN(C)C(=O)NC(C)C)O2 | inactive: -0.622% |
| COc1ccc(NC(=O)N(C)C[C@H]2Oc3ccc(NS(=O)(=O)c4c(C)noc4C)cc3C(=O)N([C@@H](C)CO)C[C@H]2C)cc1 | inactive: 0.0127% |
| Cc1ccc2nc(-c3ccncc3)cc(-c3ccccc3)c2c1 | inconclusive: 9.1% |
| N=c1oc2ccc3ccccc3c2cc1C(=O)Nc1ccccc1 | inconclusive: 7.48% |
| C[C@H](CO)N1C[C@H](C)[C@@H](CN(C)C(=O)Nc2ccc(F)cc2)Oc2ccc(NC(=O)c3ccncc3)cc2C1=O | inactive: -0.386% |
| C[C@@H]1CN([C@H](C)CO)C(=O)c2cc(NS(=O)(=O)c3ccc(F)cc3)ccc2O[C@@H]1CN(C)C(=O)Nc1cccc2ccccc12 | inactive: -0.274% |
| c1ccc(CN(CCN(Cc2ccccn2)Cc2ccccn2)Cc2ccccn2)nc1 | inconclusive: 9.37% |

As a working copy, five of the compounds above:

| SMILES | caspase activation |
| --- | --- |
| C[C@@H]1CN([C@H](C)CO)C(=O)c2cc(NS(=O)(=O)c3cn(C)cn3)ccc2O[C@@H]1CN(C)CC1CCCCC1 | inactive: -0.273% |
| COc1ccc(C2=Nc3ccccc3SC(c3ccccc3)C2)cc1 (centres undefined) | inactive: -1.16% |
| C[C@H](CO)N1C[C@H](C)[C@H](CN(C)C(=O)Nc2cccc3ccccc23)Oc2ccc(NC(=O)c3ccncc3)cc2C1=O | inactive: 0.207% |
| CC(C)(C)n1nc(-c2ccc(Cl)cc2)c2c(N)ncnc21 | active: 12.9% |
| COc1ccc2[nH]c3c(=O)n(CC(=O)N(C)Cc4ccccc4)c(=S)[nH]c3c2c1 | inconclusive: 7.46% |
